No constants are given. Whether binding was seen depends on the method and setting. In cells and extracts the contact can be indirect. Binding can be weak; no strength is given. Sequences can lack the tags named with a protein.
Target: T1, DENND6A-GFP (human) (UniProt Q8IWF6)
T1 sequence: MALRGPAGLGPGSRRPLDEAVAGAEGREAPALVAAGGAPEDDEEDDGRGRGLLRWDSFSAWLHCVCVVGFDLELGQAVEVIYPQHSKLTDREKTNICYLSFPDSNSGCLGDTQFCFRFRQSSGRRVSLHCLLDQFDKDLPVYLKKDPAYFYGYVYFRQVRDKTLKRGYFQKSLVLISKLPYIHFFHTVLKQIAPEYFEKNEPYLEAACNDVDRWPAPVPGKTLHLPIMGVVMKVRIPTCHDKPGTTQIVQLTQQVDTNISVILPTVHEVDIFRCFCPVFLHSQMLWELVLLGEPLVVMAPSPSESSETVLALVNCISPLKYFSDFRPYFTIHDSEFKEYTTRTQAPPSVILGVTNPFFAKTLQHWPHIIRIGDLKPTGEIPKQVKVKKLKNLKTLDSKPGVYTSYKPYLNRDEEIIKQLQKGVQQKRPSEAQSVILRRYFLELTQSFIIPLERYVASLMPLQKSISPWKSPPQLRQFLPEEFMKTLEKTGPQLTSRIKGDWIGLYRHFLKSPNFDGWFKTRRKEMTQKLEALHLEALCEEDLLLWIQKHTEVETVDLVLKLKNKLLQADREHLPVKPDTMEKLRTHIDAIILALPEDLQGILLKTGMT
Test: co-IP; co-immunoprecipitation with DENND6A (Supplementary Fig. 8)

In the case of “dynein intermediate chain (DIC) (human (endogenous in HEK-293T))”, the binding was “binds”.
